# Experimental data from the supplement of paper PMC10849652.
# The chains behind the UniProt entries cited, without tags or fusion partners. Where a name states a change or a piece, a line headed by the entry shows the natural chain unless it says otherwise.
# UniProt Q7Z739: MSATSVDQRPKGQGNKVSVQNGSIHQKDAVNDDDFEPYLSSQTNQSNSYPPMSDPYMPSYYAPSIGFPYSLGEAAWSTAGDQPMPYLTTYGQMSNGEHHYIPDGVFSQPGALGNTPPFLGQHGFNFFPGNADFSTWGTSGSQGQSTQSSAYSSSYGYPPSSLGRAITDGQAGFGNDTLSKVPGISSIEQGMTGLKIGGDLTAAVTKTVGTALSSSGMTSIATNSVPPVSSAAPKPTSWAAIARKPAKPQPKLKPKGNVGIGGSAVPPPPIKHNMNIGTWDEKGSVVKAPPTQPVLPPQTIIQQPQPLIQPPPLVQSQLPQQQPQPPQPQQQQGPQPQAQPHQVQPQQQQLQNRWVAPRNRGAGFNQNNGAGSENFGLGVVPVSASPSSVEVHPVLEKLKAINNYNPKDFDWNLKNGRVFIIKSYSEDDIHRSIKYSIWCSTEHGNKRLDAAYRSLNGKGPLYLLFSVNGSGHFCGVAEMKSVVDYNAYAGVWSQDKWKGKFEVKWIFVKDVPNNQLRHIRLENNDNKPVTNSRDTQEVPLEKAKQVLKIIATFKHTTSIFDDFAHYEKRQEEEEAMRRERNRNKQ
# UniProt P25490, whole entry, looked up: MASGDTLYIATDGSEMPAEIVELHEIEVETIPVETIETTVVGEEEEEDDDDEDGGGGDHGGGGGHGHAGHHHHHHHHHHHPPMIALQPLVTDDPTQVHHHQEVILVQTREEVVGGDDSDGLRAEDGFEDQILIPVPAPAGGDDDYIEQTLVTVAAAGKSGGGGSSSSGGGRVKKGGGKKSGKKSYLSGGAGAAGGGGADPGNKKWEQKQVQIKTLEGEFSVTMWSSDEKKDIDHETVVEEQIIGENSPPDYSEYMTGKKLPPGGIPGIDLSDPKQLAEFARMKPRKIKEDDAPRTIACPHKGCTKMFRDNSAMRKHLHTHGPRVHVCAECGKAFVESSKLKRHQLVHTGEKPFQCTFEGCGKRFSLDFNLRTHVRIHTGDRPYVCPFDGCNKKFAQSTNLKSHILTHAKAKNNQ
# UniProt Q7Z2W4: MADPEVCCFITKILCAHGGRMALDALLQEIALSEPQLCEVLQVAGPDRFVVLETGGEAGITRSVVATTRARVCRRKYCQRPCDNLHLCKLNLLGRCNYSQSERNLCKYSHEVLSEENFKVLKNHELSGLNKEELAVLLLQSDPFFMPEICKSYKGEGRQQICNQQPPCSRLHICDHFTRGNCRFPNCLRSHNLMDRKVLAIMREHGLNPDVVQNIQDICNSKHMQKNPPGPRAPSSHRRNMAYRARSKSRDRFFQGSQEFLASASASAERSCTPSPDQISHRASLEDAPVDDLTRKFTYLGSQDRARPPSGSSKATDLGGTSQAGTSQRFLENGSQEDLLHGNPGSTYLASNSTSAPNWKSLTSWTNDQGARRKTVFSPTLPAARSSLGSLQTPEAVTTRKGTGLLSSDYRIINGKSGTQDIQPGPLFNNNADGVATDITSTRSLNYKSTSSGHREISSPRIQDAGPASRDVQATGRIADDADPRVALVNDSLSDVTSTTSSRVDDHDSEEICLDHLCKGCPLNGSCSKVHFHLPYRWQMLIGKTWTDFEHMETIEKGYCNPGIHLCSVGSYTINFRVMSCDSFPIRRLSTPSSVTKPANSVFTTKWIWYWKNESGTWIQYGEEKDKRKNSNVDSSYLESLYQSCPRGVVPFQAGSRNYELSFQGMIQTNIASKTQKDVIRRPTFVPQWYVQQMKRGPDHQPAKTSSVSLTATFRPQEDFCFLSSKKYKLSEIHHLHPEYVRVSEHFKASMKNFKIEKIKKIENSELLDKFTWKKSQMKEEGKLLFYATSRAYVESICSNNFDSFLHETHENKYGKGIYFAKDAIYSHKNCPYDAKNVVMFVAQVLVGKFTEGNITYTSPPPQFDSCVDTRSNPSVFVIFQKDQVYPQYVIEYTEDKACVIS
# UniProt Q5SVZ6: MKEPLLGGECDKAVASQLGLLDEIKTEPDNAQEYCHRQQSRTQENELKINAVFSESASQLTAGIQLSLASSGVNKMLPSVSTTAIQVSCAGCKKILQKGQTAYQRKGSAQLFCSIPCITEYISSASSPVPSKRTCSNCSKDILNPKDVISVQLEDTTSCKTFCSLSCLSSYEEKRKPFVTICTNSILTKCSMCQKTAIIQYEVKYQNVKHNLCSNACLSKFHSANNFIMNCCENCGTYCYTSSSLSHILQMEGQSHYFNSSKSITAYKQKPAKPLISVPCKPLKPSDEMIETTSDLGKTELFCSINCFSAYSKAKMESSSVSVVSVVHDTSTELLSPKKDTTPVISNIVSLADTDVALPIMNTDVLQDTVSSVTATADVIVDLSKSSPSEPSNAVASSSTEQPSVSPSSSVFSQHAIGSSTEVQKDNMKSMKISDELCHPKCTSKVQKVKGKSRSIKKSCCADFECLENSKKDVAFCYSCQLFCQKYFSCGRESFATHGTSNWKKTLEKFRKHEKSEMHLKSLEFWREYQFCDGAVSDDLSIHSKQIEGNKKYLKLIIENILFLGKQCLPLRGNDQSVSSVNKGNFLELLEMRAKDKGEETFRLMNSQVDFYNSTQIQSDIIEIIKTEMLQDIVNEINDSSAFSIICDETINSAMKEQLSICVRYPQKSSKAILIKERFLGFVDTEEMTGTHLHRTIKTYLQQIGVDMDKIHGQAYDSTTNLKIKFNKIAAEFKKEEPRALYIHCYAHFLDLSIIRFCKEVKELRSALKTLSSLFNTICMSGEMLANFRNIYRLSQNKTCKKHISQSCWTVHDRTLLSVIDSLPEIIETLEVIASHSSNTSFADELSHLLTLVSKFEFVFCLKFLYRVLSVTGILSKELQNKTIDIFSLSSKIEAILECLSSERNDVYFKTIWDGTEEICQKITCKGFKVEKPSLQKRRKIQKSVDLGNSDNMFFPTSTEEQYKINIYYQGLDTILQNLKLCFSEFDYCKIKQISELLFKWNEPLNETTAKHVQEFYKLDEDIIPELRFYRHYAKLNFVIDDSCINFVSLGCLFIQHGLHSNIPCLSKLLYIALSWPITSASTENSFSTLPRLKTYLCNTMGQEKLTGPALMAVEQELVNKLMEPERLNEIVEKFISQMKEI
# UniProt Q86U90: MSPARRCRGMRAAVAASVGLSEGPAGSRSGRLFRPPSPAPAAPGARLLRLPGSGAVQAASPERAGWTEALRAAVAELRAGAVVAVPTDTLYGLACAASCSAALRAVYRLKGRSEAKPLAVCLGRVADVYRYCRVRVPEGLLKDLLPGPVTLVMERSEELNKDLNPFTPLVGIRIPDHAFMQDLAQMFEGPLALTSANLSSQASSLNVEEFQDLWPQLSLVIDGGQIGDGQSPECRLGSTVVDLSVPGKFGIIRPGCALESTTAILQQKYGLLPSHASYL
# UniProt Q9HAV4: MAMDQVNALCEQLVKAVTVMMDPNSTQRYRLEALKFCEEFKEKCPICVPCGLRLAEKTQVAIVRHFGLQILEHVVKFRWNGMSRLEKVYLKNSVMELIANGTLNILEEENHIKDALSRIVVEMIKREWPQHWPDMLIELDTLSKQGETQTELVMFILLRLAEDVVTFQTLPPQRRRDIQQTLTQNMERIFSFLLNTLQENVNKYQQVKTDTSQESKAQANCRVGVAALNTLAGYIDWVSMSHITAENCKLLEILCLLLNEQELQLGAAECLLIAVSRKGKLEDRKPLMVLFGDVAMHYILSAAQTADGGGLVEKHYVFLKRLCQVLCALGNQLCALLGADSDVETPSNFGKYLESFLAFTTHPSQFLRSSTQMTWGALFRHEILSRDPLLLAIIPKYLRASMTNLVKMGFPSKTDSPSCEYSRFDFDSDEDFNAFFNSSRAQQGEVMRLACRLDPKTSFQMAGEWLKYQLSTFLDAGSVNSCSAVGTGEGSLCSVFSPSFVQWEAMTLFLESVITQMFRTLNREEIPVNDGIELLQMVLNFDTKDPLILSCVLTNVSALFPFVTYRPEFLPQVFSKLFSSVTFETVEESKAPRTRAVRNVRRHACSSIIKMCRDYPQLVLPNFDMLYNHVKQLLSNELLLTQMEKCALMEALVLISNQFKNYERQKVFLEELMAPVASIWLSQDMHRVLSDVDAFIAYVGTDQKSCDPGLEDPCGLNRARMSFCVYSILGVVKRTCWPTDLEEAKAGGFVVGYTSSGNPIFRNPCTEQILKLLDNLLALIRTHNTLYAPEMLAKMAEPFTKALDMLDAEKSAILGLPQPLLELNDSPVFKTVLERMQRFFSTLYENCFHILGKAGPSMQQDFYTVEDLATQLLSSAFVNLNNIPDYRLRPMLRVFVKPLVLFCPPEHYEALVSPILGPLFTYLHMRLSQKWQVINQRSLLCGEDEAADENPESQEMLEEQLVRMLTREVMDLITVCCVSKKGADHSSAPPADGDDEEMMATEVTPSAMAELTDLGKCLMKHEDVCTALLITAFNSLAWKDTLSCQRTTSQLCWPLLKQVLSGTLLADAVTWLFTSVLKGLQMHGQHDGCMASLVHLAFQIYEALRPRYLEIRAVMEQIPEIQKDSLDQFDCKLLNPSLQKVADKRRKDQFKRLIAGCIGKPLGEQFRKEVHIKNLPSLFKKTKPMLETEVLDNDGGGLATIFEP
# UniProt O95159: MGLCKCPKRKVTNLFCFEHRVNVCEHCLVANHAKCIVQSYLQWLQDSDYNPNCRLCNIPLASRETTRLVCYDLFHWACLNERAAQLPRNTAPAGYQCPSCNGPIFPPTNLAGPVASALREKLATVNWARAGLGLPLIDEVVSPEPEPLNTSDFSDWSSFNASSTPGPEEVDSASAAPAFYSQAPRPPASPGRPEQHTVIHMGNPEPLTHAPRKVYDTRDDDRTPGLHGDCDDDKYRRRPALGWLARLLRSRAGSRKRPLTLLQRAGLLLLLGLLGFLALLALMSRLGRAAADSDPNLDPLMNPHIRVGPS
# UniProt Q9HBF4: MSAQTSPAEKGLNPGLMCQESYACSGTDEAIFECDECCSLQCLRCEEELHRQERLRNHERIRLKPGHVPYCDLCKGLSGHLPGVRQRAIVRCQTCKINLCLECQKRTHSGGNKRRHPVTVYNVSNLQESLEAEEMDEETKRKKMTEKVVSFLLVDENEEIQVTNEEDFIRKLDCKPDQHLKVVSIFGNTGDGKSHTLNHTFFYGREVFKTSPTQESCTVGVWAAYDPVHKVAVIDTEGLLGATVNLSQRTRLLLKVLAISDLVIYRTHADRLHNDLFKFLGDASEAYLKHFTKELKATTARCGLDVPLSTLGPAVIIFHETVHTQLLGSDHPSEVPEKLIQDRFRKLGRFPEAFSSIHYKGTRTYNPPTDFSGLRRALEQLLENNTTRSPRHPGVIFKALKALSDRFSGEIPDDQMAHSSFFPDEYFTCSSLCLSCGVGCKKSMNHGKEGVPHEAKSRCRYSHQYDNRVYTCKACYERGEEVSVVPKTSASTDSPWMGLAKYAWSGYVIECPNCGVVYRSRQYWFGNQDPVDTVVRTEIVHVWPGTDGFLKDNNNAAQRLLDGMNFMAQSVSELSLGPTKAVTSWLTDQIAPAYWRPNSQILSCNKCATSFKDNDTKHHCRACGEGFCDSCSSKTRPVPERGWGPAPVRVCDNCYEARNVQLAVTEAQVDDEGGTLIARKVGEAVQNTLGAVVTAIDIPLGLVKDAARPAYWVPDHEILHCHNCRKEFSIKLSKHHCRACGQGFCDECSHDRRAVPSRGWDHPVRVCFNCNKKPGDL
# UniProt Q8IWT0: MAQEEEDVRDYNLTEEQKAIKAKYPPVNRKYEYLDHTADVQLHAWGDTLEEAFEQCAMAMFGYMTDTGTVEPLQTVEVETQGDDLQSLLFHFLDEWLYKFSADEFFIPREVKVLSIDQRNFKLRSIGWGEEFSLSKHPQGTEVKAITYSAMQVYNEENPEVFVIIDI
# UniProt Q8NBI6: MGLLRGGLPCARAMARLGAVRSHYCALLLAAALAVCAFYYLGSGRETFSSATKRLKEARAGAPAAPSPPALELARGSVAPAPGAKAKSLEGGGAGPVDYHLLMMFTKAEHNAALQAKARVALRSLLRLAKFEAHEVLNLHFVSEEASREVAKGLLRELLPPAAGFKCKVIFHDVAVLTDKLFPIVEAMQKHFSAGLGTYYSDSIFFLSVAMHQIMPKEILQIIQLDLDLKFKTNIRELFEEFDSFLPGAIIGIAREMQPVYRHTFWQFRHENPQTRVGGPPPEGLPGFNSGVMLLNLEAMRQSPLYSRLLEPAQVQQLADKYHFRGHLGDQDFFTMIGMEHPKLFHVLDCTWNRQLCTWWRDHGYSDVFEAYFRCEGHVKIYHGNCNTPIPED
# UniProt A8MPS7: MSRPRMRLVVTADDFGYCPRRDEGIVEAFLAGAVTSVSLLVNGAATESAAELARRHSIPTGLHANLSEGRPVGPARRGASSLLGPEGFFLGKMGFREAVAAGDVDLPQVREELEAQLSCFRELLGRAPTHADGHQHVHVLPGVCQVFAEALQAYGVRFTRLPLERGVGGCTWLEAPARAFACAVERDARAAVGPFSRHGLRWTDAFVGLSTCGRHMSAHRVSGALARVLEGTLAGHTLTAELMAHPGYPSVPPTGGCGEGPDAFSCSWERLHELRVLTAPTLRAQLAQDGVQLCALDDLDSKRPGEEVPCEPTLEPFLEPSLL
# Some of the results follow.
# Columns and labels:
# Assay in all cases: log2 fold change, soluble protein after heating vs DMSO (PISA); higher = thermal stabilisation; K562 cells, 10 uM, 30 min; active = over 0.2 and 3.5 SD of the protein, either way, in both replicates (recomputed)
# [1] = compound: Cc1ccc(NC(=O)c2ccc(CN3CC[C@H](N(C)C)C3)c(C(F)(F)F)c2)cc1Nc1nccc(-c2cncnc2)n1 [bafetinib]
# Method in brief: (§1)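 Aliquots of K562 cells (2×10^6 cells/mL) treated with 10 μM compound for 30 min were heated for 3 min over 48°C-58°C. After pooling and extraction in PBS with 0.5% NP-40 at 4°C, soluble protein from a 21,000xg, 90 min spin was quantified by TMTpro 16plex LC-MS/MS with channel sums equalised. Thermal stability is expressed against control samples, from duplicates, as a log2 fold change.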
# [2] = compound: Cc1cccc(CC(=O)N2CCc3c2ccc(-c2cn(C)c4ncnc(N)c24)c3F)n1
# Method in brief: as §1
# [3] = compound: Cc1cn(-c2cc(NC(=O)c3ccc(C)c(Nc4nccc(-c5cccnc5)n4)c3)cc(C(F)(F)F)c2)cn1 [nilotinib]
# Method in brief: as §1
# [4] = compound: Cc1nc(Nc2n[nH]c3c2CN(C(=O)N[C@H](CN(C)C)c2ccccc2)C3(C)C)c2sccc2n1
# Method in brief: as §1
# [5] = compound: Cc1nc(Nc2ncc(C(=O)Nc3c(C)cccc3Cl)s2)cc(N2CCN(CCO)CC2)n1 [dasatinib]
# Method in brief: as §1
# [6] = compound: Cc1ncc(-c2ccnc(Nc3ccc(S(C)(=O)=O)cc3)n2)n1C(C)C
# Method in brief: as §1
# [7] = compound: Cn1cc(-c2ccc3c(c2)CCN3C(=O)Cc2cccc(C(F)(F)F)c2)c2c(N)ncnc21
# Method in brief: as §1
# [8] = compound: Cn1cc(-c2ccc3nnc(C(F)(F)c4ccc5ncccc5c4)n3n2)cn1
# Method in brief: as §1
# [9] = compound: Cn1cncc1[C@@](N)(c1ccc(Cl)cc1)c1ccc2c(c1)c(-c1cccc(Cl)c1)cc(=O)n2C [tipifarnib]
# Method in brief: as §1
# [10] = compound: FC(F)(F)c1ccc(/C=C/c2nc(COc3ccc(CCCCn4ccnn4)cc3)co2)cc1 [mubritinib]
# Method in brief: as §1
# [11] = compound: NC(=O)Nc1cc(-c2cccc(F)c2)sc1C(=O)N[C@H]1CCCNC1
# Method in brief: as §1
# [12] = compound: NC(=O)c1cnc(N[C@@H]2CCCC[C@@H]2N)nc1Nc1cccc(-n2nccn2)c1
# Method in brief: as §1
# [13] = compound: NC1(c2ccc(-c3nc4ccn5c(=O)[nH]nc5c4cc3-c3ccccc3)cc2)CCC1
# Method in brief: as §1
# [14] = compound: NCC(=O)Nc1ccc(-n2nc(C(F)(F)F)cc2-c2ccc3c(ccc4ccccc43)c2)cc1
# Method in brief: as §1
# [15] = compound: Nc1ccccc1NC(=O)c1ccc(CNC(=O)OCc2cccnc2)cc1 [entinostat]
# Method in brief: as §1
# [16] = compound: O=C(CCCCCCC(=O)Nc1ccccc1)NO [vorinostat]
# Method in brief: as §1
# [17] = compound: O=C(CCCCCCNC(=O)c1cnc(N(c2ccccc2)c2ccccc2Cl)nc1)NO [citarinostat]
# Method in brief: as §1
# [18] = compound: O=C(O)c1ccc2c(c1)nc(Nc1cccc(Cl)c1)c1ccncc12 [silmitasertib]
# Method in brief: as §1
# [19] = compound: O=C1NC(=O)C(c2cnc3ccccn23)=C1c1cn2c3c(cc(F)cc13)CN(C(=O)N1CCCCC1)CC2
# Method in brief: as §1
# [20] = compound: c1cc(OCCN2CCCCC2)cc(-c2n[nH]c3ccc(-c4nnc[nH]4)cc23)c1
# Method in brief: as §1
Target,log2 fold change [1],log2 fold change [2],log2 fold change [3],log2 fold change [4],log2 fold change [5],log2 fold change [6],log2 fold change [7],log2 fold change [8],log2 fold change [9],log2 fold change [10],log2 fold change [11],log2 fold change [12],log2 fold change [13],log2 fold change [14],log2 fold change [15],log2 fold change [16],log2 fold change [17],log2 fold change [18],log2 fold change [19],log2 fold change [20]
YTHDF3 (UniProt Q7Z739),inactive: 0.006,inactive: 0.002,inactive: -0.04,inactive: 0.001,inactive: -0.059,inactive: -0.018,inactive: 0.014,inactive: 0.027,inactive: 0.026,inactive: 0.01,inactive: -0.01,inactive: -0.032,inactive: -0.002,inactive: -0.034,inactive: 0.006,inactive: 0.072,inactive: -0.016,inactive: -0.005,inactive: -0.008,inactive: -0.034
ZNF24 (UniProt P17028),inactive: 0.168,inactive: -0.005,inactive: 0.066,inactive: 0.014,inactive: 0.083,inactive: -0.067,inactive: -0.035,inactive: -0.149,inactive: 0.177,inactive: -0.088,inactive: 0.041,inactive: -0.047,inactive: 0.123,inactive: -0.025,inactive: -0.091,inactive: 0.071,inactive: -0.091,inactive: 0.076,inactive: 0.068,inactive: -0.092
ZNF217 (UniProt O75362),inactive: -0.057,inactive: 0.008,inactive: -0.082,inactive: -0.055,inactive: -0.136,inactive: -0.046,inactive: 0.142,inactive: -0.01,inactive: -0.152,inactive: 0.08,inactive: 0.016,inactive: -0.053,inactive: -0.045,inactive: -0.081,inactive: 0.075,inactive: 0.056,inactive: -0.004,inactive: -0.073,inactive: -0.102,inactive: -0.096
YY1 (UniProt P25490),inactive: -0.044,inactive: 0.003,inactive: -0.033,active: -0.304,inactive: -0.001,inactive: -0.207,inactive: 0.004,inactive: -0.056,inactive: 0.009,inactive: -0.055,inactive: 0.037,inactive: -0.037,inactive: 0.011,inactive: -0.009,inactive: 0.053,inactive: 0.134,inactive: 0.121,inactive: 0.057,inactive: -0.013,inactive: -0.052
ZMYM3 (UniProt Q14202),inactive: -0.061,inactive: -0.121,inactive: 0.041,inactive: -0.01,inactive: 0.047,inactive: -0.009,inactive: 0.053,active: -0.246,inactive: 0.027,inactive: -0.072,inactive: -0.042,inactive: 0.11,inactive: -0.036,inactive: 0.073,inactive: -0.073,inactive: 0.073,inactive: -0.033,inactive: -0.012,inactive: 0.003,inactive: 0.029
ZC3HAV1 (UniProt Q7Z2W4),inactive: 0.069,inactive: 0.024,inactive: 0.074,inactive: -0.257,inactive: 0.023,inactive: 0.012,inactive: -0.09,inactive: -0.293,inactive: 0.122,inactive: -0.13,inactive: 0.065,inactive: 0.081,inactive: 0.246,inactive: 0.07,inactive: 0.01,inactive: -0.015,inactive: -0.05,inactive: 0.171,inactive: 0.279,inactive: -0.119
ZMYM1 (UniProt Q5SVZ6),inactive: -0.028,inactive: -0.036,inactive: -0.009,inactive: -0.063,inactive: -0.045,inactive: -0.033,inactive: 0.07,inactive: 0.05,inactive: 0.01,inactive: -0.081,inactive: -0.108,inactive: -0.123,inactive: 0.215,inactive: 0.336,inactive: -0.012,inactive: -0.02,inactive: -0.07,inactive: 0.255,inactive: 0.045,inactive: -0.229
YRDC (UniProt Q86U90),inactive: -0.042,inactive: -0.009,inactive: -0.011,inactive: -0.034,inactive: 0.01,inactive: 0.03,inactive: 0.045,inactive: -0.009,inactive: -0.003,inactive: 0.035,inactive: -0.067,inactive: -0.04,inactive: -0.057,inactive: -0.023,inactive: 0.003,inactive: -0.008,inactive: 0.053,inactive: -0.019,inactive: 0.004,inactive: -0.004
XPO5 (UniProt Q9HAV4),inactive: -0.037,inactive: 0.036,inactive: -0.07,inactive: -0.118,inactive: -0.11,inactive: -0.054,inactive: 0.026,inactive: 0.004,inactive: -0.071,inactive: 0.006,inactive: -0.025,inactive: -0.068,active: -0.234,inactive: -0.074,inactive: 0.046,inactive: 0.065,inactive: 0.068,inactive: -0.003,inactive: -0.022,inactive: -0.042
ZFPL1 (UniProt O95159),inactive: -0.022,inactive: -0.041,inactive: -0.047,inactive: -0.034,inactive: 0.04,inactive: -0.01,inactive: 0.049,inactive: -0.03,inactive: 0.008,inactive: -0.007,inactive: -0.04,inactive: 0.054,inactive: 0.058,inactive: 0.027,inactive: -0.03,inactive: -0.053,inactive: 0.046,inactive: 0.003,inactive: -0.003,inactive: 0.008
ZFYVE1 (UniProt Q9HBF4),inactive: 0.113,inactive: 0.268,inactive: -0.09,inactive: -0.016,inactive: 0.063,inactive: -0.084,inactive: 0.039,inactive: -0.129,inactive: 0.053,inactive: 0.096,inactive: -0.069,inactive: 0.108,inactive: -0.038,inactive: -0.078,inactive: 0.059,inactive: -0.094,inactive: 0.055,inactive: -0.1,inactive: 0.06,inactive: 0.035
ZFAND3 (UniProt Q9H8U3),inactive: -0.088,inactive: 0.132,inactive: -0.006,inactive: 0.036,inactive: 0.034,inactive: -0.031,inactive: 0.01,inactive: 0.005,inactive: 0.05,inactive: -0.014,inactive: 0.059,inactive: -0.097,inactive: -0.021,inactive: 0.038,inactive: -0.007,inactive: 0.11,inactive: -0.009,inactive: 0.015,inactive: -0.039,inactive: -0.04
ZBTB8OS (UniProt Q8IWT0),inactive: 0.037,inactive: 0.018,inactive: 0.112,inactive: 0.185,inactive: 0.07,inactive: 0.028,inactive: -0.006,inactive: 0.055,inactive: -0.055,inactive: 0.126,inactive: -0.016,inactive: -0.142,inactive: -0.198,inactive: -0.097,inactive: 0.026,inactive: -0.014,inactive: -0.006,inactive: 0.015,inactive: -0.081,inactive: -0.068
XXYLT1 (UniProt Q8NBI6),inactive: 0.075,inactive: -0.069,inactive: 0.006,inactive: 0.08,inactive: -0.002,inactive: -0.015,inactive: -0.024,inactive: -0.008,inactive: -0.027,inactive: -0.024,inactive: 0.018,inactive: -0.012,inactive: -0.009,inactive: 0.001,inactive: 0.047,inactive: -0.004,inactive: 0,inactive: 0.05,inactive: -0.04,inactive: -0.021
ZC3H18 (UniProt Q86VM9),inactive: 0.033,inactive: -0.063,inactive: 0.099,inactive: -0.145,inactive: 0.038,inactive: -0.162,inactive: -0.03,inactive: 0.008,inactive: 0.111,inactive: -0.042,inactive: -0.037,inactive: -0.221,inactive: 0.032,inactive: -0.012,inactive: 0.021,inactive: 0.091,inactive: 0.028,inactive: 0.135,inactive: 0.03,inactive: -0.147
YDJC (UniProt A8MPS7),inactive: 0.006,inactive: -0.032,inactive: 0.017,inactive: 0.006,inactive: -0.117,inactive: 0.014,inactive: 0.072,inactive: 0.008,inactive: -0.04,inactive: -0.006,inactive: -0.014,inactive: -0.002,inactive: -0.046,inactive: 0.031,inactive: 0.017,inactive: 0.013,inactive: -0.025,inactive: 0.083,inactive: -0.087,inactive: -0.019

# Single records, from the list above. Values in the order: log2 fold change [1] | log2 fold change [2] | log2 fold change [3] | log2 fold change [4] | log2 fold change [5] | log2 fold change [6] | log2 fold change [7] | log2 fold change [8] | log2 fold change [9] | log2 fold change [10] | log2 fold change [11] | log2 fold change [12] | log2 fold change [13] | log2 fold change [14] | log2 fold change [15] | log2 fold change [16] | log2 fold change [17] | log2 fold change [18] | log2 fold change [19] | log2 fold change [20]
# ZFPL1 (UniProt O95159) is listed with inactive: -0.022 | inactive: -0.041 | inactive: -0.047 | inactive: -0.034 | inactive: 0.04 | inactive: -0.01 | inactive: 0.049 | inactive: -0.03 | inactive: 0.008 | inactive: -0.007 | inactive: -0.04 | inactive: 0.054 | inactive: 0.058 | inactive: 0.027 | inactive: -0.03 | inactive: -0.053 | inactive: 0.046 | inactive: 0.003 | inactive: -0.003 | inactive: 0.008
# ZMYM3 (UniProt Q14202) is listed with inactive: -0.061 | inactive: -0.121 | inactive: 0.041 | inactive: -0.01 | inactive: 0.047 | inactive: -0.009 | inactive: 0.053 | active: -0.246 | inactive: 0.027 | inactive: -0.072 | inactive: -0.042 | inactive: 0.11 | inactive: -0.036 | inactive: 0.073 | inactive: -0.073 | inactive: 0.073 | inactive: -0.033 | inactive: -0.012 | inactive: 0.003 | inactive: 0.029
